Experimental data: PubChem BioAssay AID1259316 (Drosophila RNAi Screening Center, 2017)
Aim: 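Genes affecting cellular ATP levels after a toxic manganese dose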. Cell system: Drosophila S2R+ cells. Reagents: long dsRNA against Drosophila genes. Timing: 5 days (4 days knock-down, then 1 day with metal). Treatment: manganese chloride added to 15 mM for the last 24 hours. Detection: 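After 4 days of knock-down, cells got 15 mM manganese chloride for 1 day; ATP measured by luciferase light as viability, z-scored, mean of two replicates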. Reading the numbers: ATP z-score, set 1 (call basis) and ATP z-score: higher = more ATP, more viable cells under manganese. Hit rule: 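Active means the set 1 averaged z-score lies outside the range -1.5 to 1.5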. Meaning of the calls: active = ATP shifted up or down; inactive = no clear ATP shift.
Shown is one part, drawn at random, of 95 deposited reagents. In the full data, 12 (13%) are marked active. 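Calls follow set 1 z-scores only; applying the same cut-off to set 2 alone does not give the same calls.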 Unmarked entries are inactive. No sequences are given here. Not stated in the record: the amount of reagent.

gene	amplicon	ATP z-score, set 1 (call basis)	ATP z-score, set 2
Sod2 (Superoxide dismutase 2 (Mn))	DRSC07554	0.0217	-0.163
Sod2 (Superoxide dismutase 2 (Mn))	DRSC27050	1.08	0.968
Zip102B (Zinc/iron regulated transporter-related protein 102B)	DRSC17155	-0.157	-0.17
Zip102B (Zinc/iron regulated transporter-related protein 102B)	DRSC39247	-0.134	-0.34
CG6126	DRSC15971	0.174	0.583
CG6126	DRSC39462	-0.207	-0.606
Rbcn-3A (Rabconnectin-3A)	DRSC18314	0.0555	-0.366
Rbcn-3A (Rabconnectin-3A)	DRSC28199	0.994	1.7
ZnT63C (Zinc transporter 63C)	DRSC23528	-0.104	-0.221
ZnT63C (Zinc transporter 63C)	DRSC37698	0.36	0.501
Catsup (Catecholamines up)	DRSC03288	0.257	-0.563
Catsup (Catecholamines up)	DRSC25727	-0.1	0.385
Catsup (Catecholamines up)	DRSC40427	-0.019	-0.413
Mvl (Malvolio)	DRSC16752	-0.322	-0.0457
Mvl (Malvolio)	DRSC39671	-0.462	-0.531
Sod1 (Superoxide dismutase 1)	DRSC11286	1.34	0.827
Sod1 (Superoxide dismutase 1)	DRSC40766	0.296	0.322
CG7536	DRSC20050	-0.283	-0.429
CG7536	DRSC39596	0.00814	0.09
Orct (Organic cation transporter)	DRSC16777	-0.535	-0.109
Orct (Organic cation transporter)	DRSC25574	0.0673	0.877
mTor (mechanistic Target of rapamycin)	DRSC02811	-0.0316	-0.185
mTor (mechanistic Target of rapamycin)	DRSC40810	0.15	0.381
CHMP2B (Charged multivesicular body protein 2b)	DRSC10436	-0.629	-0.737
CHMP2B (Charged multivesicular body protein 2b)	DRSC26221	1.64 (active)	0.512
p38b (p38b MAP kinase)	DRSC37327	1.26	0.0194
Vha68-2 (Vacuolar H[+] ATPase 68 kDa subunit 2)	DRSC28637	3.11 (active)	2.91
Vha68-2 (Vacuolar H[+] ATPase 68 kDa subunit 2)	DRSC31692	1.92 (active)	2.34
eEF1gamma (eukaryotic translation elongation factor 1 gamma)	DRSC23655	0.312	0.863
eEF1gamma (eukaryotic translation elongation factor 1 gamma)	DRSC35716	0.0341	1.48
Vha36-1 (Vacuolar H[+] ATPase 36kD subunit 1)	DRSC07098	1.62 (active)	1.64
Vha36-1 (Vacuolar H[+] ATPase 36kD subunit 1)	DRSC25624	0.737	1.67
anne (anne boleyn)	DRSC29952	-0.695	0.0281
anne (anne boleyn)	DRSC40853	-0.203	-0.356
Lnk	DRSC16729	-0.534	0.242
Lnk	DRSC31005	0.685	0.237
stw (straw)	DRSC04842	0.0127	-0.49
stw (straw)	DRSC04843	-0.678	-0.144
SPoCk (Secretory Pathway Calcium atpase)	DRSC11844	0.106	-0.565
SPoCk (Secretory Pathway Calcium atpase)	DRSC24007	-0.288	-0.181
ZnT86D (Zinc transporter 86D)	DRSC16091	-0.334	-0.185
ZnT86D (Zinc transporter 86D)	DRSC40064	0.0112	1.04
iPLA2-VIA (calcium-independent phospholipase A2 VIA)	DRSC10699	0.414	-0.0773
iPLA2-VIA (calcium-independent phospholipase A2 VIA)	DRSC37171	0.189	-0.665

Active calls, of those listed so far:
gene	amplicon	ATP z-score, set 1 (call basis)	ATP z-score, set 2
CHMP2B (Charged multivesicular body protein 2b)	DRSC26221	1.64 (active)	0.512
Vha68-2 (Vacuolar H[+] ATPase 68 kDa subunit 2)	DRSC28637	3.11 (active)	2.91
Vha68-2 (Vacuolar H[+] ATPase 68 kDa subunit 2)	DRSC31692	1.92 (active)	2.34
Vha36-1 (Vacuolar H[+] ATPase 36kD subunit 1)	DRSC07098	1.62 (active)	1.64

The list goes on.
gene	amplicon	ATP z-score, set 1 (call basis)	ATP z-score, set 2
Vha44 (Vacuolar H[+] ATPase 44kD subunit)	DRSC24506	1.97 (active)	2.03
Vha44 (Vacuolar H[+] ATPase 44kD subunit)	DRSC32230	2.71 (active)	1.51
alphaCOP (Coat Protein (coatomer) alpha)	DRSC08706	0.125	-1.02
alphaCOP (Coat Protein (coatomer) alpha)	DRSC30831	-0.808	-0.765
alphaCOP (Coat Protein (coatomer) alpha)	DRSC30832	-1.28	-0.995
VhaSFD (Vacuolar H[+]-ATPase SFD subunit)	DRSC03471	0.708	1.36
VhaSFD (Vacuolar H[+]-ATPase SFD subunit)	DRSC32234	2.87 (active)	2.45
VhaSFD (Vacuolar H[+]-ATPase SFD subunit)	DRSC32235	1.47	1.92
Zip99C (Zinc/iron regulated transporter-related protein 99C)	DRSC16320	-0.312	-0.332
Zip99C (Zinc/iron regulated transporter-related protein 99C)	DRSC40024	0.828	0.403
MFS14 (Major Facilitator Superfamily Transporter 14)	DRSC06524	0.0612	0.161
MFS14 (Major Facilitator Superfamily Transporter 14)	DRSC39753	-0.603	-0.143
Atox1 (Antioxidant 1 copper chaperone)	DRSC22416	-0.186	0.0122
Pop2	DRSC10537	0.963	1.17
Pop2	DRSC32413	2.15 (active)	2.83
rl (rolled)	DRSC31395	-0.244	0.441
rl (rolled)	DRSC31396	-0.821	-0.459
CG42674	DRSC29701	0.345	0.252
CG42674	DRSC35487	0.129	-0.179
ATP7	DRSC19819	0.443	-0.765
ATP7	DRSC39460	-0.668	-0.0919
Syx5 (Syntaxin 5)	DRSC03432	0.812	1.21
Syx5 (Syntaxin 5)	DRSC40872	0.914	0.15
Cdc50 (Cell division cycle 50)	DRSC20224	-0.326	0.269
Vha16-1 (Vacuolar H[+] ATPase 16kD subunit 1)	DRSC05020	1.99 (active)	1.92
Vha16-1 (Vacuolar H[+] ATPase 16kD subunit 1)	DRSC32229	0.751	0.789
-816832516	DRSC36755	0.0539	-0.426
SERCA (Sarco/endoplasmic reticulum Ca(2+)-ATPase)	DRSC04600	-0.929	-0.397
SERCA (Sarco/endoplasmic reticulum Ca(2+)-ATPase)	DRSC26195	-1.24	-0.821
Nhe2 (Na[+]/H[+] hydrogen exchanger 2)	DRSC03172	-0.778	-0.442
Nhe2 (Na[+]/H[+] hydrogen exchanger 2)	DRSC03377	-0.186	-0.0992
Alk (Anaplastic lymphoma kinase)	DRSC23342	-0.401	-0.367
Alk (Anaplastic lymphoma kinase)	DRSC33404	-0.113	-0.214
Alk (Anaplastic lymphoma kinase)	DRSC36973	-0.308	-0.0196
p38a (p38a MAP kinase)	DRSC36706	-0.189	-0.294
p38a (p38a MAP kinase)	DRSC37322	-0.226	-0.46
p38c (p38c MAP kinase)	DRSC22939	-0.357	-0.348
p38c (p38c MAP kinase)	DRSC37357	0.0312	-0.0426
foi (fear-of-intimacy)	DRSC29596	-1.6 (active)	-1.45
foi (fear-of-intimacy)	DRSC35740	0.153	0.123
